# From the supplement of paper PMC10849652
# Protein sequences, listed by entry. Tags and fused reporters are not part of them. Lines headed by an entry give the natural chain unless they say otherwise; changes in a name come on top.
# UniProt Q9BPY3: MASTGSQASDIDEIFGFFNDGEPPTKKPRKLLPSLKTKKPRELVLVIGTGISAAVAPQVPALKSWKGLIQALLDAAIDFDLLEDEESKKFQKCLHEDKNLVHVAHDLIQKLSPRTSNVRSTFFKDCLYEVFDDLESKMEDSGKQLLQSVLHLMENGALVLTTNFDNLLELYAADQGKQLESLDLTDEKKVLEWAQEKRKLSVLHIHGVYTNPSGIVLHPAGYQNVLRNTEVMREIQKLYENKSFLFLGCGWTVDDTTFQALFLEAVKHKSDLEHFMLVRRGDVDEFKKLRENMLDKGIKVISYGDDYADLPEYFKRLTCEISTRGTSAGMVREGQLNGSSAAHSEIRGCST
# UniProt Q7Z309: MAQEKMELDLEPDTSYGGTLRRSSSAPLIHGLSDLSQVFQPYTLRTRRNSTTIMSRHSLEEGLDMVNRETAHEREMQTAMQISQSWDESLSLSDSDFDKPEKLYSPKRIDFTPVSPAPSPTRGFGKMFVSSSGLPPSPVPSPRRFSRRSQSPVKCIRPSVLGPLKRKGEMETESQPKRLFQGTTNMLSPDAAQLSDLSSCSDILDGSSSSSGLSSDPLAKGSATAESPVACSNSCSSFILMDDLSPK
# UniProt Q6IPR1: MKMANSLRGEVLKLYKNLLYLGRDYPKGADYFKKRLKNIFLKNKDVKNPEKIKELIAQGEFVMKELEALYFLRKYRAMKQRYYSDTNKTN
# UniProt Q9UF33: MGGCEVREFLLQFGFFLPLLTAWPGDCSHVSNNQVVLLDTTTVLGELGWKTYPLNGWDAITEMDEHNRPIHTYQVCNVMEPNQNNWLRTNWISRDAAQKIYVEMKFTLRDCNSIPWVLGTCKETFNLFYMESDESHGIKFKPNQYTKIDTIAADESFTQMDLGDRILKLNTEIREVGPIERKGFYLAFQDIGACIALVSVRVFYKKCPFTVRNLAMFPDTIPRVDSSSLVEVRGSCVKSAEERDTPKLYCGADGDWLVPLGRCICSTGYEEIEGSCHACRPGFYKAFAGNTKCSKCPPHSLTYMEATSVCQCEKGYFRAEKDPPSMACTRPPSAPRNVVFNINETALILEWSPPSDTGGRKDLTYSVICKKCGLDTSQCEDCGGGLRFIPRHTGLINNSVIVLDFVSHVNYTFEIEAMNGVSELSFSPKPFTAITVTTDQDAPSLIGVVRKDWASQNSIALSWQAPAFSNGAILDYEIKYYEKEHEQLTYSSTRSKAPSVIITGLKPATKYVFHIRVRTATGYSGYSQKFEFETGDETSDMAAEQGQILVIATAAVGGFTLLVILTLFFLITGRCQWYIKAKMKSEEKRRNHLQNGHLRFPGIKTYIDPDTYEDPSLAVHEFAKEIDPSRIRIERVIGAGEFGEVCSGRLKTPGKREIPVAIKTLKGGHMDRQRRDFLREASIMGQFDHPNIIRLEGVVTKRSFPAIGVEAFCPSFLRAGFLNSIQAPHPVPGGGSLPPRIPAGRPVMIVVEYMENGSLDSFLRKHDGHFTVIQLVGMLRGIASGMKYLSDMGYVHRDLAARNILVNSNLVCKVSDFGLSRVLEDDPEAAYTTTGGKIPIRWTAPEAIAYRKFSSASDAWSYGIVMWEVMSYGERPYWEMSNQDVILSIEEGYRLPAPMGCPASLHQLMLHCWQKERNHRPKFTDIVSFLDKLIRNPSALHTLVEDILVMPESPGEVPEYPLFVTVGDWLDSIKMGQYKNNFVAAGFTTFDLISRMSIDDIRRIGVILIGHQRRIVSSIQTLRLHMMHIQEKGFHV
# UniProt P19447: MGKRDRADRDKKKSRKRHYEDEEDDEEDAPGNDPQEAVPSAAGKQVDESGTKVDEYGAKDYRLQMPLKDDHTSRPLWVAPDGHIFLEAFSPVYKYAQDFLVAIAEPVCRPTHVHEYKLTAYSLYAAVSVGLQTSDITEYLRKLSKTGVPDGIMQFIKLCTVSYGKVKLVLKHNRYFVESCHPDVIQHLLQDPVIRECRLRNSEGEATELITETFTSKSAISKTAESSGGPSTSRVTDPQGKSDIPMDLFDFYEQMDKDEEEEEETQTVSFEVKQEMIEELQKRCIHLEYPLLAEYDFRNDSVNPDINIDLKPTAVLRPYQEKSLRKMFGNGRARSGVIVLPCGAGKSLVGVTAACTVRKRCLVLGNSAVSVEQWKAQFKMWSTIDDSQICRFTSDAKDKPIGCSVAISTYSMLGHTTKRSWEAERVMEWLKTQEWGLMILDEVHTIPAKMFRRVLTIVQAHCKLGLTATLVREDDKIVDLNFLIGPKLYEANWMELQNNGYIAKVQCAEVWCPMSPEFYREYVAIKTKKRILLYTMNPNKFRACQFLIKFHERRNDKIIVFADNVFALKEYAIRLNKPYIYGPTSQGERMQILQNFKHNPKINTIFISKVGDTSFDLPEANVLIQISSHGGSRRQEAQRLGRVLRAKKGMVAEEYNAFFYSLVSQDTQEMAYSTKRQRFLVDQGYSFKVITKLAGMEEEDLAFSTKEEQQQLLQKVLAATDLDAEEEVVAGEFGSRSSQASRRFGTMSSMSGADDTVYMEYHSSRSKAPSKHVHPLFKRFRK
# UniProt Q9BYI3: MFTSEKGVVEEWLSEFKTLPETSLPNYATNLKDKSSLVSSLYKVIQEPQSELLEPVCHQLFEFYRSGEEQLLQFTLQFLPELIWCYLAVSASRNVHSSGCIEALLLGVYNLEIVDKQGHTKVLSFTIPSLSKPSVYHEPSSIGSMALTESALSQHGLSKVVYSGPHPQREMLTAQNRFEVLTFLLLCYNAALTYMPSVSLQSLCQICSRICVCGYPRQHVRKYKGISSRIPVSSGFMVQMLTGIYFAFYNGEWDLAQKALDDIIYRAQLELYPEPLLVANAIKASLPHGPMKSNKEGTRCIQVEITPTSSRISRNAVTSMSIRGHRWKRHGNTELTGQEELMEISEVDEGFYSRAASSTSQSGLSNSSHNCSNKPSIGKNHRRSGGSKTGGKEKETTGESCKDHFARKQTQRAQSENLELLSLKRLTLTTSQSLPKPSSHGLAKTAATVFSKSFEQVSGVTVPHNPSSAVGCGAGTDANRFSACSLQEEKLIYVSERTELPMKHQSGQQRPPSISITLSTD
# UniProt Q9HCE0: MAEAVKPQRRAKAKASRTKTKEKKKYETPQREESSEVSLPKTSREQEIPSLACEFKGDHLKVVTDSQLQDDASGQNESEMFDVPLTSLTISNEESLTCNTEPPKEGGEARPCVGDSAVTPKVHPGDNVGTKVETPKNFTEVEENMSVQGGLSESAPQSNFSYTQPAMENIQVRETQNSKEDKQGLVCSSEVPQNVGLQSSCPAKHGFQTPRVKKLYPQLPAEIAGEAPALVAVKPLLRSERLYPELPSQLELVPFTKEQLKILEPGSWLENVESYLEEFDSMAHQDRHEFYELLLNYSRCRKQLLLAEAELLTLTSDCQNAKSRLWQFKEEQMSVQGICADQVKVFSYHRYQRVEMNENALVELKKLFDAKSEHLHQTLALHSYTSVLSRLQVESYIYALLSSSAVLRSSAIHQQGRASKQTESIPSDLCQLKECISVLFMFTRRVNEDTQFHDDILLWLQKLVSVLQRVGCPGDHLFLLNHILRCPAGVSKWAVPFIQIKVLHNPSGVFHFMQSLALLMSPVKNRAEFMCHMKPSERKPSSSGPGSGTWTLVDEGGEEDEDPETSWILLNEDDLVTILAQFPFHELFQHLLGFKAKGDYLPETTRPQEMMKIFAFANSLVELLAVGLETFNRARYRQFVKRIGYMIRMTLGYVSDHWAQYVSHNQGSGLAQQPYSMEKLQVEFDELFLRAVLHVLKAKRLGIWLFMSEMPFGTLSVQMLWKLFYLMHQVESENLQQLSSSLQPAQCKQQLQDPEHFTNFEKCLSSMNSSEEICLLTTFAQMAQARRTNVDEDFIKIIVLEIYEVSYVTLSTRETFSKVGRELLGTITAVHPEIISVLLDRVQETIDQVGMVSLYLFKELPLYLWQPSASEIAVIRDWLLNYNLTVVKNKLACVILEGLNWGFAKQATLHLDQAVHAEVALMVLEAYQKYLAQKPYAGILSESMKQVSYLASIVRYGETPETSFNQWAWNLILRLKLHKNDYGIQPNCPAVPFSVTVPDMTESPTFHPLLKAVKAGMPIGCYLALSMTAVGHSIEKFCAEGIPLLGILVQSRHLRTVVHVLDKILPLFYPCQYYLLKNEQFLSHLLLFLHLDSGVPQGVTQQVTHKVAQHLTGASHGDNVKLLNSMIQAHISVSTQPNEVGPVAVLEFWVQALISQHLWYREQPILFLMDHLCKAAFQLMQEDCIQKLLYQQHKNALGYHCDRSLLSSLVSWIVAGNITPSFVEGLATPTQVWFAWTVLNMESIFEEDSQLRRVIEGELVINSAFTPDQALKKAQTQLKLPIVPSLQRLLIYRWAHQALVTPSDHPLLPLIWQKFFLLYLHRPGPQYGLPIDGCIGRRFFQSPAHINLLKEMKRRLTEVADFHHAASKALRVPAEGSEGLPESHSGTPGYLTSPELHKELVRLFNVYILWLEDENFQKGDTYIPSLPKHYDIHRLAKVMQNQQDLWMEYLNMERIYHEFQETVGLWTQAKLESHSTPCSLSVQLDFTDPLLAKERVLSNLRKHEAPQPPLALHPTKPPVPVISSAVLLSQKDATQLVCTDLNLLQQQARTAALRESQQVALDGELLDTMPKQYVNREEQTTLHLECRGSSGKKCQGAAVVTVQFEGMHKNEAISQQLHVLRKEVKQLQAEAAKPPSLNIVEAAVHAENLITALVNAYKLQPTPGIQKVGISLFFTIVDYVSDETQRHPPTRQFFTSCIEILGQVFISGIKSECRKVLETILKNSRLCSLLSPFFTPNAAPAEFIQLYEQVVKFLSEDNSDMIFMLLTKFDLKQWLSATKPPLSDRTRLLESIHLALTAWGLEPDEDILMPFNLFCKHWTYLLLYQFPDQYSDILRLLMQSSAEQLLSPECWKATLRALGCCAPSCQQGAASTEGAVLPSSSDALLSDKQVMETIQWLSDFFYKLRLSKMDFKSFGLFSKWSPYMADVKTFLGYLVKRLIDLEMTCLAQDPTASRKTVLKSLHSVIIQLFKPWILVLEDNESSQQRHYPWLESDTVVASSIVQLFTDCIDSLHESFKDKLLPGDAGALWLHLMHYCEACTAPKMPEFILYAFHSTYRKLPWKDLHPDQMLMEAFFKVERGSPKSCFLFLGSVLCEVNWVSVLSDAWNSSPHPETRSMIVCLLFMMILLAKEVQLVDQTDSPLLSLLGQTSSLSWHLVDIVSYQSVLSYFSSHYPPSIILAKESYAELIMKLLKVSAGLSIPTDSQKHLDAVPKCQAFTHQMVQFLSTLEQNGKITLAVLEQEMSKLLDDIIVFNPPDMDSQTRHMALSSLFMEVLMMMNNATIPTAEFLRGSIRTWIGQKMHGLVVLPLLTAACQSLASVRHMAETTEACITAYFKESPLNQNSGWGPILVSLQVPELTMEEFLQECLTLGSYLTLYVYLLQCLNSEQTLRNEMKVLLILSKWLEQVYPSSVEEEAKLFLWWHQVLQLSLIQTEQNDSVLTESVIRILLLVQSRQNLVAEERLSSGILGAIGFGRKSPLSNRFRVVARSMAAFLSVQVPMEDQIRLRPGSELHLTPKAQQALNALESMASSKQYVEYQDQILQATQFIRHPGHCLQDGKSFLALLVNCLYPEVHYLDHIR
# UniProt Q8IXR5: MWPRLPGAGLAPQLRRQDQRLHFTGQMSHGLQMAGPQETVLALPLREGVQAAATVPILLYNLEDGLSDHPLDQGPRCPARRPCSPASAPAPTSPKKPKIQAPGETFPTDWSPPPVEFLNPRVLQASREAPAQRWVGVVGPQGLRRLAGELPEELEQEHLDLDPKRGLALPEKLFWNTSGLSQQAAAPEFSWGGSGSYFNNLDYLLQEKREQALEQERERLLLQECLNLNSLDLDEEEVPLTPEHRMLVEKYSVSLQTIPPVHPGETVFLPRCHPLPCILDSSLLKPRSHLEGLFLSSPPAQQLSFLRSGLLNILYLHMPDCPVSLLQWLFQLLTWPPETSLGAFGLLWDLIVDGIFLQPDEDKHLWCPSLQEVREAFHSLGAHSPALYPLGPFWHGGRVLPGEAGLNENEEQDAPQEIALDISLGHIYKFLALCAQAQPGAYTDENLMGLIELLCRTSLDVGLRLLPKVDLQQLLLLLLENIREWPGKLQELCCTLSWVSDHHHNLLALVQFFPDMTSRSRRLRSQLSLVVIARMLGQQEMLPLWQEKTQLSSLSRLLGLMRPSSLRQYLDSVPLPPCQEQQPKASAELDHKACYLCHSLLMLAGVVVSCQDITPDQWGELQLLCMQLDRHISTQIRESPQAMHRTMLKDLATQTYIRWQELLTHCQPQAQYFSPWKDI
# The list shows a part of the results.
# What was measured:
# Assay in all cases: log2 fold change, soluble protein after heating vs DMSO (PISA); higher = thermal stabilisation; K562 cells, 10 uM, 30 min; active = over 0.2 and 3.5 SD of the protein, either way, in both replicates (recomputed)
# [1] = compound: CC[C@@H]1C(=O)N(C)c2cnc(Nc3ccc(C(=O)NC4CCN(C)CC4)cc3OC)nc2N1C1CCCC1
# How it was run: (§1)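 K562 cells at 2×10^6 cells/mL were exposed to 10 μM compound for 30 min, then aliquots were heated for 3 min across 48°C-58°C, pooled, and extracted in PBS containing 0.5% NP-40 at 4°C. The supernatant after 21,000xg for 90 min was taken as soluble protein and measured by TMTpro 16plex LC-MS/MS with channel sums equalised. Thermal stability is reported relative to control samples, with values from duplicates. Fold changes are given on a log2 scale.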
# [2] = compound: CC[C@H](C)N1C=C(C2=C(C=C(C=C21)C3=CN=C(C=C3)N4CCNCC4)C(=O)NCC5=C(C=C(NC5=O)C)C)C
# How it was run: as §1
# [3] = compound: CN(CCOC1=CC=C(C=C1)C[C@H]2C(=O)NC(=O)S2)C3=CC=CC=N3 (racemic) [rosiglitazone]
# How it was run: as §1
# [4] = compound: CN1C2=C(C3=C1C(=O)N(N=C3)CC4=CC(=CC=C4)N)SC(=C2)S(=O)C
# How it was run: as §1
# [5] = compound: CN1CCN(CCOc2cc(OC3CCOCC3)c3c(Nc4c(Cl)ccc5c4OCO5)ncnc3c2)CC1 [saracatinib]
# How it was run: as §1
# [6] = compound: CN1CCc2c(c3ccccc3n2Cc2ccc(C(=O)NO)cc2)C1 [Tubastatin A]
# How it was run: as §1
# [7] = compound: CNCc1ccc(-c2[nH]c3cc(F)cc4c3c2CCNC4=O)cc1 [rucaparib]
# How it was run: as §1
# [8] = compound: CNc1nc(-c2ccc3c(N)n[nH]c3c2)cc(N2C[C@@H](C(=O)NC3CCCCC3)CC[C@H]2C)n1
# How it was run: as §1
# [9] = compound: COC(=O)N[C@@H](C)CNc1nccc(-c2cn(C(C)C)nc2-c2cc(Cl)cc(NS(C)(=O)=O)c2F)n1 [encorafenib]
# How it was run: as §1
# [10] = compound: CC[C@@H]1C(=O)N(C)c2cnc(Nc3ccc(C(=O)N[C@H]4CC[C@H](N5CCN(CC6CC6)CC5)CC4)cc3OC)nc2N1C(C)C [volasertib]
# How it was run: as §1
# [11] = compound: CC[C@H](C)[C@@H](C(=O)N[C@@H]([C@@H](C)O)C(=O)N[C@@H](CC(C)C)C(=O)[C@]1(CO1)C)NC(=O)[C@H]([C@@H](C)CC)N(C)C(=O)C [epoxomicin]
# How it was run: as §1
# [12] = compound: CCn1cc(-c2ccnc3[nH]c(-c4cccc(CN(C)C)c4)cc23)c(-c2ccc(NC(=O)N(C)C)cc2)n1
# How it was run: as §1
# [13] = compound: CN(C)CC(=O)Nc1ccc2[nH]c(=O)c3ccccc3c2c1
# How it was run: as §1
# [14] = compound: CN1CCC(CNc2ccc3ncc(-c4cccc(OC(F)(F)F)c4)n3n2)CC1
# How it was run: as §1
# [15] = compound: CN1CCN(c2nc(C3=C(c4c[nH]c5ccccc45)C(=O)NC3=O)c3ccccc3n2)CC1 [sotrastaurin]
# How it was run: as §1
# [16] = compound: CNC(=O)C1=CC=CC=C1NC2=NC(=NC=C2Cl)NC3=C(C=C(C=C3)N4CCOCC4)OC
# How it was run: as §1
# [17] = compound: CNC(=O)c1ccc(Nc2ncc(C(F)(F)F)c(NCc3nccnc3N(C)S(C)(=O)=O)n2)cc1 [defactinib]
# How it was run: as §1
# [18] = compound: COC(=O)[C@H](CCSC)NC(=O)C1=C(C=C(C=C1)NC[C@H](CS)N)C2=CC=CC=C2
# How it was run: as §1
# [19] = compound: CN1CC[C@H](c2c(O)cc(O)c3c(=O)cc(-c4ccccc4Cl)oc23)[C@H](O)C1 [alvocidib]
# How it was run: as §1
# [20] = compound: CCn1c(C(=O)N(C2CC2)C2CC2)cc2c3c(ncn3C)c(Nc3cc(C)n(C)n3)nc21
# How it was run: as §1
target,measurement,setting,value
F13A1 (UniProt P00488),log2 fold change,[1],inactive: 0.117
same,log2 fold change,[2],inactive: -0.409
same,log2 fold change,[3],inactive: 0.019
same,log2 fold change,[4],inactive: 0.376
same,log2 fold change,[5],inactive: 0.11
same,log2 fold change,[6],inactive: 0.13
same,log2 fold change,[7],inactive: -0.018
same,log2 fold change,[8],inactive: -0.091
same,log2 fold change,[9],inactive: 0.139
FAM118B (UniProt Q9BPY3),log2 fold change,[1],inactive: -0.087
same,log2 fold change,[10],active: -0.445
same,log2 fold change,[2],inactive: 0.035
same,log2 fold change,[11],inactive: 0.036
same,log2 fold change,[12],inactive: -0.067
same,log2 fold change,[13],inactive: 0.11
same,log2 fold change,[14],active: -0.373
same,log2 fold change,[15],inactive: -0.02
same,log2 fold change,[6],inactive: 0.019
same,log2 fold change,[16],inactive: 0.088
same,log2 fold change,[17],inactive: -0.113
same,log2 fold change,[7],inactive: 0.041
same,log2 fold change,[9],inactive: 0.029
same,log2 fold change,[18],inactive: -0.037
EPB41L2 isoform 4 (UniProt O43491),log2 fold change,[10],inactive: -0.044
same,log2 fold change,[2],inactive: -0.006
same,log2 fold change,[11],inactive: 0.049
same,log2 fold change,[3],inactive: 0.157
same,log2 fold change,[15],inactive: -0.174
FAM122B isoform 2 (UniProt Q7Z309),log2 fold change,[1],inactive: -0.102
same,log2 fold change,[19],inactive: 0.01
same,log2 fold change,[7],inactive: 0.081
same,log2 fold change,[9],inactive: -0.023
FAM122B isoform 3 (UniProt Q7Z309),log2 fold change,[1],inactive: -0.076
same,log2 fold change,[2],inactive: 0.083
same,log2 fold change,[11],inactive: 0.012
same,log2 fold change,[20],inactive: -0.048
same,log2 fold change,[12],inactive: -0.114
same,log2 fold change,[13],inactive: -0.096
same,log2 fold change,[3],inactive: -0.022
same,log2 fold change,[4],inactive: 0.008
same,log2 fold change,[14],inactive: -0.014
same,log2 fold change,[5],inactive: -0.104
same,log2 fold change,[15],inactive: 0.007
same,log2 fold change,[19],inactive: -0.147
same,log2 fold change,[6],inactive: 0.031
same,log2 fold change,[16],inactive: -0.191
same,log2 fold change,[17],inactive: -0.001
same,log2 fold change,[7],inactive: 0.043
same,log2 fold change,[8],inactive: -0.121
same,log2 fold change,[9],inactive: 0.168
same,log2 fold change,[18],inactive: 0.131
FAM120B (UniProt Q96EK7),log2 fold change,[1],inactive: -0.03
same,log2 fold change,[20],inactive: 0.007
same,log2 fold change,[12],inactive: 0.049
same,log2 fold change,[14],inactive: -0.002
same,log2 fold change,[16],inactive: 0.027
same,log2 fold change,[7],inactive: 0.042
same,log2 fold change,[9],inactive: 0.129
ESPL1 (UniProt Q14674),log2 fold change,[10],inactive: -0.154
same,log2 fold change,[2],inactive: 0.059
same,log2 fold change,[11],inactive: -0.119
same,log2 fold change,[20],inactive: -0.075
same,log2 fold change,[12],inactive: 0.064
same,log2 fold change,[13],inactive: -0.113
same,log2 fold change,[3],inactive: -0.048
same,log2 fold change,[14],inactive: -0.158
same,log2 fold change,[15],inactive: 0.046
same,log2 fold change,[19],inactive: 0.134
same,log2 fold change,[16],inactive: -0.025
same,log2 fold change,[17],inactive: 0.079
same,log2 fold change,[18],inactive: -0.044
EXOG (UniProt Q9Y2C4),log2 fold change,[1],inactive: -0.035
same,log2 fold change,[10],inactive: 0.018
same,log2 fold change,[12],inactive: 0.018
same,log2 fold change,[13],inactive: -0.041
same,log2 fold change,[4],inactive: 0.01
same,log2 fold change,[14],inactive: 0.147
same,log2 fold change,[5],inactive: 0.006
same,log2 fold change,[19],inactive: 0.057
same,log2 fold change,[6],inactive: -0.397
same,log2 fold change,[17],inactive: 0.057
same,log2 fold change,[7],inactive: 0.078
same,log2 fold change,[8],inactive: 0.008
same,log2 fold change,[9],inactive: 0.09
same,log2 fold change,[18],inactive: -0.06
ETFRF1 (UniProt Q6IPR1),log2 fold change,[10],inactive: 0.034
same,log2 fold change,[2],inactive: -0.106
same,log2 fold change,[11],inactive: 0.045
same,log2 fold change,[20],inactive: 0.005
same,log2 fold change,[12],inactive: 0.009
same,log2 fold change,[13],inactive: 0.039
same,log2 fold change,[3],inactive: 0.017
same,log2 fold change,[4],inactive: -0.053
same,log2 fold change,[14],inactive: 0.12
same,log2 fold change,[5],inactive: 0.186
same,log2 fold change,[15],inactive: 0.075
same,log2 fold change,[19],inactive: -0.158
same,log2 fold change,[6],inactive: -0.024
same,log2 fold change,[16],inactive: -0.011
same,log2 fold change,[17],inactive: -0.048
same,log2 fold change,[8],inactive: -0.092
same,log2 fold change,[18],inactive: 0.095
EPHA6 (UniProt Q9UF33),log2 fold change,[1],inactive: 0.165
same,log2 fold change,[10],inactive: 0.027
same,log2 fold change,[2],inactive: -0.271
same,log2 fold change,[11],inactive: -0.444
same,log2 fold change,[13],inactive: -0.369
same,log2 fold change,[3],inactive: -0.096
same,log2 fold change,[4],inactive: -0.058
same,log2 fold change,[5],inactive: 0.03
same,log2 fold change,[15],inactive: 0.364
same,log2 fold change,[19],inactive: 0.029
same,log2 fold change,[6],inactive: -0.107
same,log2 fold change,[17],inactive: 0.106
same,log2 fold change,[7],inactive: -0.046
same,log2 fold change,[8],inactive: -0.071
same,log2 fold change,[9],inactive: -0.174
same,log2 fold change,[18],inactive: 0.123
ERI3 (UniProt H0Y4B0),log2 fold change,[1],inactive: -0.346
same,log2 fold change,[11],inactive: -0.173
same,log2 fold change,[20],inactive: 0.141
same,log2 fold change,[3],inactive: -0.012
same,log2 fold change,[15],inactive: 0.025
same,log2 fold change,[16],inactive: 0.202
same,log2 fold change,[7],inactive: 0.094
same,log2 fold change,[9],inactive: -0.528
EVPL (UniProt Q92817),log2 fold change,[1],inactive: 0.462
same,log2 fold change,[2],inactive: -0.374
same,log2 fold change,[12],inactive: -0.159
same,log2 fold change,[14],inactive: -0.17
same,log2 fold change,[15],inactive: 0.157
same,log2 fold change,[7],inactive: 0.009
same,log2 fold change,[9],inactive: -0.069
ERCC3 (UniProt P19447),log2 fold change,[10],inactive: -0.137
same,log2 fold change,[2],inactive: 0.058
same,log2 fold change,[11],inactive: -0.055
same,log2 fold change,[20],inactive: -0.116
same,log2 fold change,[12],inactive: 0.018
same,log2 fold change,[13],inactive: 0.069
same,log2 fold change,[3],inactive: -0.019
same,log2 fold change,[4],inactive: 0.19
same,log2 fold change,[14],inactive: -0.065
same,log2 fold change,[5],inactive: -0.117
same,log2 fold change,[15],inactive: -0.098
same,log2 fold change,[19],inactive: -0.001
same,log2 fold change,[6],inactive: -0.06
same,log2 fold change,[16],inactive: 0.029
same,log2 fold change,[17],inactive: -0.013
same,log2 fold change,[8],inactive: 0.04
same,log2 fold change,[18],inactive: -0.072
FAM126A (UniProt Q9BYI3),log2 fold change,[1],inactive: -0.174
same,log2 fold change,[11],inactive: -0.308
same,log2 fold change,[20],inactive: 0.007
same,log2 fold change,[16],inactive: 0.084
same,log2 fold change,[7],inactive: -0.332
same,log2 fold change,[9],inactive: 0.315
EXO5 (UniProt Q9H790),log2 fold change,[15],inactive: 0.136
EPG5 (UniProt Q9HCE0),log2 fold change,[11],inactive: -0.084
same,log2 fold change,[4],inactive: 0.069
same,log2 fold change,[5],inactive: -0.004
same,log2 fold change,[15],inactive: -0.11
same,log2 fold change,[8],inactive: -0.066
EXD2 (UniProt Q9NVH0),log2 fold change,[10],inactive: -0.446
same,log2 fold change,[11],inactive: -0.048
same,log2 fold change,[20],inactive: 0.017
same,log2 fold change,[15],inactive: -0.013
same,log2 fold change,[19],inactive: 0.293
same,log2 fold change,[16],inactive: -0.006
FAM178B (UniProt Q8IXR5),log2 fold change,[20],inactive: -0.019
same,log2 fold change,[12],inactive: 0.155
same,log2 fold change,[14],inactive: 0.286
same,log2 fold change,[16],inactive: 0.05

# An excerpt of these results, bar-delimited:
target | measurement | setting | value
FAM118B (UniProt Q9BPY3) | log2 fold change | [14] | active: -0.373
same | log2 fold change | [15] | inactive: -0.02
same | log2 fold change | [6] | inactive: 0.019
same | log2 fold change | [16] | inactive: 0.088

# Quoted from the entries so far (2 entries):
target,measurement,setting,value
ERCC3 (UniProt P19447),log2 fold change,[11],inactive: -0.055
same,log2 fold change,[20],inactive: -0.116

# In another format: results already given
target	measurement	setting	value
EPB41L2 isoform 4 (UniProt O43491)	log2 fold change	[15]	inactive: -0.174
ESPL1 (UniProt Q14674)	log2 fold change	[13]	inactive: -0.113
EPHA6 (UniProt Q9UF33)	log2 fold change	[6]	inactive: -0.107
